Measured values: patent US8470783B2, “Medicinal use of histone deacetylase inhibitor and method of evaluating antitumor effect thereof” (Astellas Pharma Inc., priority 2001, dated 2013)

Tested on: human tumor cells (PC-3, U937, ACHN)
Assay: Gene chip analysis of in vitro gene expression in human tumor cells (Example 6)
Type: cell-based
Details: of 7070 genes detectable using GeneChip

FK228
number of genes that commonly showed decreased expression in the three human tumor cells: 100 genes
number of genes that commonly showed increased expression in the three human tumor cells: 105 genes
